This assay addresses T1, DENND6A-GFP (human) (UniProt Q8IWF6).
T1 sequence: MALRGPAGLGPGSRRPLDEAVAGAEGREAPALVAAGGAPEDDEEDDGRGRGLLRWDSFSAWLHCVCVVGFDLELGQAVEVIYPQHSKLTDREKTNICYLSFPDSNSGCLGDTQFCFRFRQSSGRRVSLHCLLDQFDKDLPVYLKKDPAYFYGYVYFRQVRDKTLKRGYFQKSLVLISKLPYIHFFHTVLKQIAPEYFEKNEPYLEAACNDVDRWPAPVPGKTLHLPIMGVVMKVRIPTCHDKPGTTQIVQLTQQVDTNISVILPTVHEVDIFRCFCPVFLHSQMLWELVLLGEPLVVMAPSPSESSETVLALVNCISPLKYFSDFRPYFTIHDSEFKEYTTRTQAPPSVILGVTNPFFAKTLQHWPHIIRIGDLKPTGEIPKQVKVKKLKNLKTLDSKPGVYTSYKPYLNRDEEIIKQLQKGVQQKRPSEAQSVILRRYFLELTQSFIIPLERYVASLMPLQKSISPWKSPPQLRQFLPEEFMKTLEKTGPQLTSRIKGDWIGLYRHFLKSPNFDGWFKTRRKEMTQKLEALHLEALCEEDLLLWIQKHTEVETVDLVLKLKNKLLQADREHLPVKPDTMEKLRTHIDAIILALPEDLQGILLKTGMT
Description: co-IP; co-immunoprecipitation with DENND6A (Supplementary Fig. 8).

No constants are given. Whether binding was seen depends on the method and setting. In cells and extracts the contact can be indirect. Binding calls can cover weak binding; strength is not graded here. Tags and fused reporters may be left off the sequences shown.

“dynein intermediate chain (DIC) (human (endogenous in HEK-293T))”: the binding entry was “binds”.

Source of the values: paper PMC10830484.
